From article PMC4574897 come the findings set out here.

The chains behind the UniProt entries cited, without tags or fusion partners.
UniProt P46937: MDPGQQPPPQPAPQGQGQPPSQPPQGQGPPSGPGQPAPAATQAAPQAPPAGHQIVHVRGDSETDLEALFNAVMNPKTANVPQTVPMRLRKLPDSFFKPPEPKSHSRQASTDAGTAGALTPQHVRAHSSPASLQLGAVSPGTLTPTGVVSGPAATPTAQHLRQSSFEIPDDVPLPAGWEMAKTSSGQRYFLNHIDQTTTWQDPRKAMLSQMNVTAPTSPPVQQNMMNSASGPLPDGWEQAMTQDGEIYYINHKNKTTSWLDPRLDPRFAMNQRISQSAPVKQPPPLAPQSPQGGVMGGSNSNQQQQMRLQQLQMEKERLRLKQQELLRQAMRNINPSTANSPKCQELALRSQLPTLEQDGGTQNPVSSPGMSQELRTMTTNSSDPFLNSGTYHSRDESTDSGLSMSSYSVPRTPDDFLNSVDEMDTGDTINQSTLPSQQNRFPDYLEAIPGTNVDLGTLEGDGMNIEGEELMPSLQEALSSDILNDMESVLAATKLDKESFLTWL
UniProt P07947: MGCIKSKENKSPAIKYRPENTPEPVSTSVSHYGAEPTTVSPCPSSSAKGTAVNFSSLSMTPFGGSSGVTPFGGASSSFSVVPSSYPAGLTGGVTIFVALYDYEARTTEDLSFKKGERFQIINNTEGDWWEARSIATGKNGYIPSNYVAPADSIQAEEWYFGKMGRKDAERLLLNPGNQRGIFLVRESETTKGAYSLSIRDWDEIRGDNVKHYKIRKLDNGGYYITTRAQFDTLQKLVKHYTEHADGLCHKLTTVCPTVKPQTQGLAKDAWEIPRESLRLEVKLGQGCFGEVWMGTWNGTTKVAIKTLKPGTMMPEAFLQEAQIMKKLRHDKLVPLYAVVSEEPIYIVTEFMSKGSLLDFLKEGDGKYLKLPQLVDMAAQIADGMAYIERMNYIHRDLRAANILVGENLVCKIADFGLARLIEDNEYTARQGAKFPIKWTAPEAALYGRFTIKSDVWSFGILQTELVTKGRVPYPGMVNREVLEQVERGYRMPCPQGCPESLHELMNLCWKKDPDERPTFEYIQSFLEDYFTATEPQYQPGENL

Test [1] addresses T1, Occludin (human (endogenous in HPAFII and AsPc1)) (UniProt Q16625).
T1 sequence: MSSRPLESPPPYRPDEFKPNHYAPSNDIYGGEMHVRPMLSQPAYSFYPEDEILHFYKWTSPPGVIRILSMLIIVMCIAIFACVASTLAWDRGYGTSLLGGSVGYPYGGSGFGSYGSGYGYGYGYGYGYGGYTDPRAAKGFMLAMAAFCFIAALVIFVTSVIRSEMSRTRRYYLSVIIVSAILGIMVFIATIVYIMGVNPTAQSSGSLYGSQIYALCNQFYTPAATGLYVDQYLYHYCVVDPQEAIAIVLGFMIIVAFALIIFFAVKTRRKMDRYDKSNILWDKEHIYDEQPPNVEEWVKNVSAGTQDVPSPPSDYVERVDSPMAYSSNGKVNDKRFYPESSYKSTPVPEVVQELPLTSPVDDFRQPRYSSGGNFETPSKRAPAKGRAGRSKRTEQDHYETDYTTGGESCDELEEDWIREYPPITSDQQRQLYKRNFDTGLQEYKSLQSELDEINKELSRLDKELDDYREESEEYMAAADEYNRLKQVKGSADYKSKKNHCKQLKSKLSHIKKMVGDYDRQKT
In words: co-IP; immunoprecipitation of Ocln from nuclear, cytoplasmic and membrane fractions of HPAFII cells, non-treated or treated with 20 uM dobutamine; antibody overnight at 4°C, A/G beads, washes in RIPA buffer; immunoblot.

Test [2] deals with T2, Occludin (human (endogenous in HPAFII and AsPc1)), Q16625.
T2 chain: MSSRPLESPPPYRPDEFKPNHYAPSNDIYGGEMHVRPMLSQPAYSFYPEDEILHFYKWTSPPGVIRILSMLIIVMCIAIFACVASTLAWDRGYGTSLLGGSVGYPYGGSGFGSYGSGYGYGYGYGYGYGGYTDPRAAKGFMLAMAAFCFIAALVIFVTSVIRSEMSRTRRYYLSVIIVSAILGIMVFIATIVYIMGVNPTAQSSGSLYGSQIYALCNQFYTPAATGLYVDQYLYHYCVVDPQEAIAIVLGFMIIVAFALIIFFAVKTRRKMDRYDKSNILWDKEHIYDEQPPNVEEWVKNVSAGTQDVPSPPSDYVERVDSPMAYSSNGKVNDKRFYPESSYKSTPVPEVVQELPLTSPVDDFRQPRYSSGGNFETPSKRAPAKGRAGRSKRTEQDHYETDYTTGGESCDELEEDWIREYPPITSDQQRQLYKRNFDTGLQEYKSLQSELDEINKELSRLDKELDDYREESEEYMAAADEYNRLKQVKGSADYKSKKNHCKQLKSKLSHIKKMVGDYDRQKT
Described as above. The note with it: remark: other sources report otherwise.

Test [3] deals with c-Yes associated protein (human (endogenous in HPAFII and AsPc1)) (UniProt P46937). In words: co-IP; immunoprecipitation of YAP from HPAFII cells (cellular distributions compared), immunoblot for Ocln; antibody overnight at 4°C, A/G beads, washes in RIPA buffer.
For test [4] the target is unchanged. In words: co-IP; immunoprecipitation of YAP from AsPc1 cells (cellular distributions compared), immunoblot for Ocln; antibody overnight at 4°C, A/G beads, washes in RIPA buffer.

These are yes or no findings as the source states them, for the method shown. Binding seen in cells or lysates may run through a third protein. Some entries that bind do so weakly or less than the wild type.

As for c-Yes (from UniProt P07947 1-543), in test [1], the binding entry is given as “binds”.

B1: MARVELD2 (tricellulin), Q8N4S9 1-558 (protein)
chain: MSNDGRSRNRDRRYDEVPSDLPYQDTTIRTHPTLHDSERAVSADPLPPPPLPLQPPFGPDFYSSDTEEPAIAPDLKPVRRFVPDSWKNFFRGKKKDPEWDKPVSDIRYISDGVECSPPASPARPNHRSPLNSCKDPYGGSEGTFSSRKEADAVFPRDPYGSLDRHTQTVRTYSEKVEEYNLRYSYMKSWAGLLRILGVVELLLGAGVFACVTAYIHKDSEWYNLFGYSQPYGMGGVGGLGSMYGGYYYTGPKTPFVLVVAGLAWITTIIILVLGMSMYYRTILLDSNWWPLTEFGINVALFILYMAAAIVYVNDTNRGGLCYYPLFNTPVNAVFCRVEGGQIAAMIFLFVTMIVYLISALVCLKLWRHEAARRHREYMEQQEINEPSLSSKRKMCEMATSGDRQRDSEVNFKELRTAKMKPELLSGHIPPGHIPKPIVMPDYVAKYPVIQTDDERERYKAVFQDQFSEYKELSAEVQAVLRKFDELDAVMSRLPHHSESRQEHERISRIHEEFKKKKNDPTFLEKKERCDYLKNKLSHIKQRIQEYDKVMNWDVQGYS
Take B1: the binding entry in test [2] was “binds”.

B2: Occludin (protein, UniProt Q16625 1-522)
chain: MSSRPLESPPPYRPDEFKPNHYAPSNDIYGGEMHVRPMLSQPAYSFYPEDEILHFYKWTSPPGVIRILSMLIIVMCIAIFACVASTLAWDRGYGTSLLGGSVGYPYGGSGFGSYGSGYGYGYGYGYGYGGYTDPRAAKGFMLAMAAFCFIAALVIFVTSVIRSEMSRTRRYYLSVIIVSAILGIMVFIATIVYIMGVNPTAQSSGSLYGSQIYALCNQFYTPAATGLYVDQYLYHYCVVDPQEAIAIVLGFMIIVAFALIIFFAVKTRRKMDRYDKSNILWDKEHIYDEQPPNVEEWVKNVSAGTQDVPSPPSDYVERVDSPMAYSSNGKVNDKRFYPESSYKSTPVPEVVQELPLTSPVDDFRQPRYSSGGNFETPSKRAPAKGRAGRSKRTEQDHYETDYTTGGESCDELEEDWIREYPPITSDQQRQLYKRNFDTGLQEYKSLQSELDEINKELSRLDKELDDYREESEEYMAAADEYNRLKQVKGSADYKSKKNHCKQLKSKLSHIKKMVGDYDRQKT
On to B2, for which the binding result in test [3] and in test [4] was “binds” in each case.
